PubChem BioAssay AID1259308 | NCATS, 2017
Assay: 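Candidate targets for better recombinant protein yield in mammalian cells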 (primary screen). Cell system: human HEK293 embryonic kidney cells stably expressing firefly luciferase (HEK-CMV-Luc2-Hygro). Knock-down reagent: single siRNA against human genes, 0.8 pmol siRNA per well. Time to read-out: 72 h. Read-out: 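Luciferase light (ONE-Glo) measured on one replicate plate set and viability (CellTiter-Glo) on the other, scaled to a negative control siRNA, with robust z-scores and luciferase per cell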. Direction: total luciferase, z-score: higher = more reporter protein produced. Call rule: 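An siRNA counts as active if its total luciferase robust z-score exceeds 3; genes with two or more such siRNAs out of three were retested with fresh siRNAs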. Calls: active = raised luciferase; inactive = no rise.
Shown is a random part of about 59,000 deposited reagents. In the full data, about 1,510 (2.6%) got an active call. 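Calls use total luciferase alone and ignore viability, so some active siRNAs may act by altering cell number.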 Unmarked entries are inactive. Not all columns of the deposit are shown.

For TUBB (tubulin beta class I) [SID160730761], how do the results read?
total luciferase, z-score: 1.79

For TUBB (tubulin beta class I) [SID160741082], what does the deposit list?
total luciferase, z-score: 1.28

How did the screen score TUBB (tubulin beta class I) [SID160741184]?
total luciferase, z-score: -0.295

With PCYOX1L (prenylcysteine oxidase 1 like) [SID160734915], what does the deposit list?
total luciferase, z-score: -1.6

For PCYOX1L (prenylcysteine oxidase 1 like) [SID160748433], what does the deposit list?
total luciferase, z-score: -0.754

With PCYOX1L (prenylcysteine oxidase 1 like) [SID160748434], what was measured?
total luciferase, z-score: 0.74

2 of these entries in another layout:
TUBB (tubulin beta class I) [SID160741082]
- total luciferase, z-score: 1.28

TUBB (tubulin beta class I) [SID160741184]
- total luciferase, z-score: -0.295

Next entries follow:
With SOCS2 (suppressor of cytokine signaling 2) [SID160720927], what does the deposit list?
total luciferase, z-score: 0.101

What did the screen give for SOCS2 (suppressor of cytokine signaling 2) [SID160720928]?
total luciferase, z-score: -0.789

What did the screen give for SOCS2 (suppressor of cytokine signaling 2) [SID160720930]?
total luciferase, z-score: 0.196

What is on record for ASB6 (ankyrin repeat and SOCS box containing 6) [SID160757766]?
total luciferase, z-score: 1.28

What did the screen give for ASB6 (ankyrin repeat and SOCS box containing 6) [SID160757767]?
total luciferase, z-score: 0.317

With ASB6 (ankyrin repeat and SOCS box containing 6) [SID160757768], what does the deposit list?
total luciferase, z-score: 1.22
